Assay: Reaction of cyclic imine Mannich or sulfur fluoride electrophiles with Ac-Tyr-NHMe (HPLC, LC/MS)
Type: physicochemical
Conditions: electrophile 5 mM, Ac-Tyr-NHMe 100 mM, PBS pH 7, 37 °C
Procedure: To identify an appropriate warhead, we synthesized or purchased a collection of cyclic imines and incubated them with N‐acetyl‐L‐tyrosine methylamide (Ac‐Tyr‐NHMe) in PBS pH 7 at 37 °C (Table 1). The reactivity was quantified by UV integration on HPLC with LC/MS confirmation of product identity (Figure S1). […] The hydrolysis kinetics of imine 2 were characterized at pD 6 and 7.5 by NMR (Figure S3). […] The Mannich reaction mechanism involves a charged iminium intermediate, and the reaction is frequently catalyzed by Bronsted acids.^[ [36], [37] ^]
Figure 2 Second‐order rate constants for select cyclic imines and a sulfonyl fluoride with aromatic nucleophiles. Reactions were conducted under pseudo‐first‐order conditions with an excess of one reactant, as indicated. The reduction in the concentration of the limiting reactant was measured at various time points by HPLC analysis.
Figure S2: Second order rate constant determination. Reaction of (A) imine 1 (5 mM) with N-Ac-Tyr-NHMe (100 mM) at 37 °C or (B) at R.T. (C) imine 2 (5 mM) with N-Ac-Tyr-NHMe (100 mM) at 37 °C (D) imine 1 (5 mM) with indole-3-butyrate (100 mM) at 37 °C (E) imine 1 (10 mM) with 1 mM 1H-pyrrole-1-propionate (F) iminium 5 (5 mM) with N-Ac-Tyr-NHMe (100 mM) at 37 °C (G) imine 4 (5 mM) with N-Ac-Tyr-NHMe (100 mM) at 37 °C. (H) imine 11 (5 mM) with N-Ac-Tyr-NHMe (100 mM) at 37 °C. (I) imine 13 (5 mM) with N-Ac-Tyr-NHMe (100 mM) at 37 °C.
5.1 General procedure for determination of second order rate constants N-acetyl-l-tyrosine methyl amide (Ac-Tyr-NHMe) (100 mM) was incubated with 5 mM imine 1 in PBS (pH 7) at 37 °C or R.T..

| SMILES | reactivity (in words) | further results |
| --- | --- | --- |
| O=c1cnc2ccccc2o1 [compound 3] | – | reactivity: % conv. in 30 mins (30 mins, competing hydrolysis): 30% conv. in 30 mins ^b) |
| C1=NCCc2c1[nH]c1ccccc21 [compound 6] | very weak | reactivity: % conv. in 72 h (72 h): 30% conv. in 72 h |
| COc1ccc2c3c([nH]c2c1)C(C)=NCC3 [compound 7] | no reactivity | – |
| C1=NCCc2ccccc21 [compound 8] | limited | reactivity: % conv. in 24 h (24 h): 5% conv. in 24 h |
| CC1=NCCC1 [compound 9] | no and no reactivity | – |
| O=C1NCC=Nc2ccccc21 [compound 10] | no and no reactivity | – |
| O=S1(=O)C=Nc2ccccc2O1 [compound 12] | not stable in aqueous solution | – |
| O=C(O)c1ccc(OS(=O)(=O)F)cc1 [compound 14, reference compound] | low reactivity | – |
